# Data published in the supplement of paper PMC8728848.
# The list shows a part of the results.
# B1: PX9961KLbvu-535-38-535 (Bacteroides vulgatus) (protein)
# chain: DKAYTDAESYTKGLHKIYSVWALSGQDGSSSSDISGLDAGNTALLRCWWTLQEQPTDEMKNAWNDAWCTEVNYMTWTTNKVEPIEGVYQRCMYIVALVNEFLKNIPNAPESIDKESYIAQARFNRAFAYYVLMDMFALPPFITEKNYSIEPAPLSREDLFNWIEAELNEIKPNLPSPRSEYGVADQAVASALLARMYLNAEIYTGKARYTECINACNEVIKAGYQLADNYADLFKADNGENPDTKKEIIYPIIFDGDKTQSWGMAAIIIGARGAEDKDVLLAHSGVDQGWAGFRATSNLVHLFDFQNDEEPKASEIQDKRGIFYDKGRSIDITSSVSGTFETEGWSVFKFSNLNSNGQPGKNTLWVDTDFPMFRLGDIYLMYAEAVARGGEGSKASAVEYINALRKRAYGDDKHNISENWLEENNFRNLLDERGRELYWEGIRRTDLVRFDLLTSGSYTWDFKGGINTGVGVNKRYNVYPIPVTDLTVNGNLQQNEGY
# Experiments:
# Test in all cases: glycan array binding signal (z-score within array); higher = stronger binding
# Conditions in all cases: glycan notation: IUPAC condensed, linker removed
# [1] = target: Fuc(a1-2)Gal(b1-4)GlcNAc(b1-3)Gal(b1-4)GlcNAc(b1-3)Gal(b1-4)GlcNAc
# In short: (§1)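 The Consortium for Functional Glycomics database supplied 3228 glycan arrays, of which those lacking an available protein sequence were dropped. The binding signal, a within-array Z-score, was averaged across arrays of the same protein sequence and across linkers. Negative scores can be read as non-binding.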
# [2] = target: Fuc(a1-2)Gal(b1-4)GlcNAc(b1-3)GalNAc
# In short: as §1
# [3] = target: Fuc(a1-2)Gal(b1-4)GlcNAc(b1-3)[Fuc(a1-2)Gal(b1-4)GlcNAc(b1-6)]GalNAc
# In short: as §1
# [4] = target: Fuc(a1-2)Gal(b1-4)GlcNAc(b1-3)[Fuc(a1-3)[Gal(b1-4)]GlcNAc(b1-6)]Gal(b1-4)Glc
# In short: as §1
# [5] = target: Fuc(a1-2)Gal(b1-4)GlcNAc(b1-6)GalNAc
# In short: as §1
# [6] = target: Fuc(a1-2)Gal(b1-4)GlcNAc6S
# In short: as §1
# [7] = target: Fuc(a1-2)Gal(b1-4)[Fuc(a1-3)]GlcNAc
# In short: as §1
# [8] = target: Fuc(a1-2)Gal(b1-4)[Fuc(a1-3)]GlcNAc(b1-2)Man(a1-3)[Fuc(a1-2)Gal(b1-4)[Fuc(a1-3)]GlcNAc(b1-2)Man(a1-6)]Man(b1-4)GlcNAc(b1-4)[Fuc(a1-6)]GlcNAc
# In short: as §1
# [9] = target: Fuc(a1-2)Gal(b1-4)[Fuc(a1-3)]GlcNAc(b1-2)[Fuc(a1-2)Gal(b1-4)[Fuc(a1-3)]GlcNAc(b1-4)]Man(a1-3)[Fuc(a1-2)Gal(b1-4)[Fuc(a1-3)]GlcNAc(b1-2)Man(a1-6)]Man(b1-4)GlcNAc(b1-4)GlcNAc
# In short: as §1
# [10] = target: Fuc(a1-2)Gal(b1-4)[Fuc(a1-3)]GlcNAc(b1-3)Gal(b1-4)[Fuc(a1-3)]GlcNAc
# In short: as §1
# [11] = target: Fuc(a1-2)Gal(b1-4)[Fuc(a1-3)]GlcNAc(b1-3)Gal(b1-4)[Fuc(a1-3)]GlcNAc(b1-3)Gal(b1-4)[Fuc(a1-3)]GlcNAc
# In short: as §1
# [12] = target: Fuc(a1-2)Gal(b1-4)[Fuc(a1-3)]GlcNAc(b1-3)GalNAc
# In short: as §1
# [13] = target: Fuc(a1-2)Gal(b1-4)[Fuc(a1-3)]GlcNAc(b1-3)[Neu5Ac(a2-6)Gal(b1-4)GlcNAc(b1-6)]Gal(b1-4)Glc
# In short: as §1
# [14] = target: Fuc(a1-2)Gal3S(b1-4)GlcNAc
# In short: as §1
# [15] = target: Fuc(a1-2)Gal6S(b1-3)GlcNAc
# In short: as §1
# [16] = target: Fuc(a1-2)Gal6S(b1-3)GlcNAc6S
# In short: as §1
# Fuc(a1-2)Gal6S(b1-4)Glc = target: Fuc(a1-2)Gal6S(b1-4)Glc
# In short: as §1
# [17] = target: Fuc(a1-2)Gal6S(b1-4)Glc6S
# In short: as §1
# Fuc(a1-2)[Gal(a1-3)]Gal = target: Fuc(a1-2)[Gal(a1-3)]Gal
# In short: as §1
# [18] = target: Fuc(a1-2)[Gal(a1-3)]Gal(b1-3)GalNAc
# In short: as §1
# [19] = target: Fuc(a1-2)[Gal(a1-3)]Gal(b1-3)GalNAc(b1-3)Gal(a1-4)Gal(b1-4)Glc
# In short: as §1
# [20] = target: Fuc(a1-2)[Gal(a1-3)]Gal(b1-3)GlcNAc
# In short: as §1
# [21] = target: Fuc(a1-2)[Gal(a1-3)]Gal(b1-3)GlcNAc(b1-2)Man(a1-3)[Fuc(a1-2)[Gal(a1-3)]Gal(b1-3)GlcNAc(b1-2)Man(a1-6)]Man(b1-4)GlcNAc(b1-4)GlcNAc
# In short: as §1
# [22] = target: Fuc(a1-2)[Gal(a1-3)]Gal(b1-3)GlcNAc(b1-2)Man(a1-3)[Fuc(a1-2)[Gal(a1-3)]Gal(b1-3)GlcNAc(b1-2)Man(a1-6)]Man(b1-4)GlcNAc(b1-4)[Fuc(a1-6)]GlcNAc
# In short: as §1
# [23] = target: Fuc(a1-2)[Gal(a1-3)]Gal(b1-3)GlcNAc(b1-3)GalNAc
# In short: as §1
# [24] = target: Fuc(a1-2)[Gal(a1-3)]Gal(b1-3)GlcNAc(b1-6)GalNAc
# In short: as §1
# [25] = target: Fuc(a1-2)[Gal(a1-3)]Gal(b1-4)Glc
# In short: as §1
# [26] = target: Fuc(a1-2)[Gal(a1-3)]Gal(b1-4)GlcNAc
# In short: as §1
# [27] = target: Fuc(a1-2)[Gal(a1-3)]Gal(b1-4)GlcNAc(b1-2)Man
# In short: as §1
# [28] = target: Fuc(a1-2)[Gal(a1-3)]Gal(b1-4)GlcNAc(b1-2)Man(a1-3)[Fuc(a1-2)[Gal(a1-3)]Gal(b1-4)GlcNAc(b1-2)Man(a1-6)]Man(b1-4)GlcNAc(b1-4)GlcNAc
# In short: as §1
binder,measurement,setting,value
B1,glycan array binding signal (z-score),[1],0.17
same,glycan array binding signal (z-score),[2],0.545
same,glycan array binding signal (z-score),[3],0.15
same,glycan array binding signal (z-score),[4],-0.598
same,glycan array binding signal (z-score),[5],-0.204
same,glycan array binding signal (z-score),[6],0.265
same,glycan array binding signal (z-score),[7],-0.295
same,glycan array binding signal (z-score),[8],0.566
same,glycan array binding signal (z-score),[9],-0.263
same,glycan array binding signal (z-score),[10],0.27
same,glycan array binding signal (z-score),[11],0.338
same,glycan array binding signal (z-score),[12],-0.016
same,glycan array binding signal (z-score),[13],-0.086
same,glycan array binding signal (z-score),[14],0.037
same,glycan array binding signal (z-score),[15],-0.431
same,glycan array binding signal (z-score),[16],1.23
same,glycan array binding signal (z-score),Fuc(a1-2)Gal6S(b1-4)Glc,-0.362
same,glycan array binding signal (z-score),[17],1.22
same,glycan array binding signal (z-score),Fuc(a1-2)[Gal(a1-3)]Gal,1.72
same,glycan array binding signal (z-score),[18],0.614
same,glycan array binding signal (z-score),[19],-0.624
same,glycan array binding signal (z-score),[20],-0.648
same,glycan array binding signal (z-score),[21],0.16
same,glycan array binding signal (z-score),[22],-0.126
same,glycan array binding signal (z-score),[23],-0.92
same,glycan array binding signal (z-score),[24],1.21
same,glycan array binding signal (z-score),[25],0.261
same,glycan array binding signal (z-score),[26],0.791
same,glycan array binding signal (z-score),[27],-0.79
same,glycan array binding signal (z-score),[28],0.006

# Two records picked at random from those above, as already listed:
binder,measurement,setting,value
B1,glycan array binding signal (z-score),[15],-0.431
same,glycan array binding signal (z-score),[3],0.15
